Measured values reported in PubChem BioAssay AID2685 (National Center for Advancing Translational Sciences (NCATS), 2010).
The other results are listed elsewhere or left out. These are further read-outs of the screen, such as a control signal, another cell line or another target. No call is given for them. The list favours compounds with an active or inconclusive main result. The note in brackets gives the kind of curve behind each potency; many fits are weak.

Test: qHTS Assay for Lipid Storage Modulators in Drosophila S3 Cells;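 on cell number change: cells counted by Cell Tracker Red CMTPX staining in the red channel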
Conditions: BODIPY lipid droplet fluorescence, 18-24 h; for cell number change: measured here: cell count max response, cells fed with added oleic acid
Summary of the method: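 Drosophila S3 cells got compounds at several concentrations plus oleic acid (400 uM solution). Laser-scanning cytometry with 488 nm excitation read lipid droplets at 500-530 nm and cells at 575-640 nm. Percent activity was relative to 20 uM Triacsin C.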

[1] = measured here: cell number channel AC50, cells fed with added oleic acid
[2] = measured here: lipid fluorescence (Fed channel) AC50, cells fed with added oleic acid

Row | Compound | cell number change | AC50 [1] | AC50 [2]
1 | CNC(=O)CN(c1ccc(C(C)C)cc1)S(C)(=O)=O | 30.5% | 4.61 µM [rising, full curve] | 0.164 µM [rising, full curve]
2 | Cc1ccc(C)c(CN2C(=O)c3ccccc3S(=O)(=O)c3ccc(C(=O)N4CCN(C)CC4)cc32)c1 | -26.5% |  | 
3 | CCN(CC(=O)Nc1ccc2c(c1)OCCO2)S(=O)(=O)c1ccc(F)cc1 | 10.9% |  | 
4 | CN(C)CCCN1C(=O)C2CCc3[nH]c4ccccc4c3C2C1=O (stereo not given) | 0.304% |  | 29.1 µM [rising, single point]
5 | COc1ccccc1Nc1nc2ccc(C)cc2n2cnnc12 | -12% | 0.82 µM [rising, full curve, poor fit] | 5.17 µM [falling, single point]
6 | COC(=O)CNC(c1ccccc1)c1cc(C)ccc1NC(=O)c1cccc(Cl)c1 (stereo not given) | 41.4% | 5.8 µM [rising, partial curve] | 0.82 µM [rising, full curve]
7 | CCCn1c(O)c(/C=C2\C=NN=C2c2ccccc2)sc1=S | -36.4% |  | 29.1 µM [falling, single point]
8 | CCCOc1ccccc1C1CC(=O)Nc2cc3c(cc21)OCCO3 (stereo not given) | -39.3% | 16.4 µM [falling, partial curve, poor fit] | 23.1 µM [falling, partial curve]
9 | O=[N+]([O-])c1ccccc1N/N=C\c1ccccc1F | -36.2% | 9.2 µM [falling, partial curve] | 7.31 µM [falling, partial curve]
10 | COc1cccc(OC)c1C(=O)Nc1nc2ccc([N+](=O)[O-])cc2s1 | 8.97% | 6.51 µM [falling, single point] | 6.51 µM [falling, single point]
11 | Cn1c(SCC#N)nc2ccccc2c1=O | 27.7% |  | 29.1 µM [rising, single point]
12 | Cc1cc(C)c2oc(C(=O)NCc3ccccc3)cc(=O)c2c1 | 21.7% |  | 13 µM [falling, partial curve]
13 | Cc1cc(OCC(=O)Nc2ccncc2)cc(C)c1Br | -52% | 16.4 µM [falling, partial curve] | 18.4 µM [falling, single point]
14 | C=CCNC(=O)CC1C(=O)NCCN1Cc1ccc(-c2ccccc2)cc1 (stereo not given) | -39% | 0.517 µM [falling, full curve] | 0.517 µM [falling, full curve]
15 | Cc1ccc(S(=O)(=O)N2CCOCC2)cc1C(=O)N(C)CCOc1ccc(Cl)cc1 | -10.4% |  | 
16 | COc1cccc(Nc2nnc(Cc3cccnc3)c3ccccc23)c1 | -13.4% |  | 29.1 µM [falling, single point]
17 | CC1Cc2ccccc2N1CC(=O)NCc1ccccc1Cl (stereo not given) | 9.94% |  | 16.4 µM [rising, single point]
18 | Cn1c(=O)c(-c2ccccc2N)nc2ccccc21 |  | 0.366 µM [rising, full curve] | 0.231 µM [rising, full curve, poor fit]
19 | Cc1ccc(S(=O)(=O)N2C=CC(C(F)(F)F)=NCC2)cc1 | 14.4% |  | 

Two entries drawn at random from the list so far:
Row | Compound | cell number change | AC50 [1] | AC50 [2]
19 | Cc1ccc(S(=O)(=O)N2C=CC(C(F)(F)F)=NCC2)cc1 | 14.4% |  | 
3 | CCN(CC(=O)Nc1ccc2c(c1)OCCO2)S(=O)(=O)c1ccc(F)cc1 | 10.9% |  | 

Next records follow:

Row | Compound | cell number change | AC50 [1] | AC50 [2]
20 | COC(=O)C(C)NC(=O)c1ccc(C(C)(C)C)cc1 (stereo not given) | -4.79% |  | 
21 | O=C(Nc1ccccc1)c1ccncc1 | -2.65% |  | 2.06 µM [falling, partial curve]
22 | CCOc1ccccc1NC(=O)CSc1nc(=O)n(Cc2ccccn2)c2c1CCC2 | 54.2% | 9.2 µM [rising, partial curve] | 
23 | Clc1ccc(C2=C3CCCCn4c(-c5ccccc5)c[n+](c43)C2)cc1 | -13.1% |  | 23.1 µM [falling, partial curve, poor fit]
24 | COc1cccc2c3c(c(C)nc12)CCN3c1ccccc1 | 9.85% |  | 
25 | Cc1ccc(NC(=O)CN(C)CC(=O)Nc2cccc(F)c2)cc1S(=O)(=O)N1CCCCCC1 |  | 0.092 µM [falling, single point] | 
26 | Cc1c(CCC(=O)N[C@@H](CC(C)C)C(=O)O)c(=O)oc2cc3oc4c(c3cc12)CCCC4 | 33.1% | 5.17 µM [rising, partial curve] | 0.58 µM [rising, partial curve, poor fit]
27 | Cc1cc(C(=O)CSc2ncccn2)c(C)n1-c1cccc(F)c1 | -72.5% | 18.4 µM [falling, partial curve, poor fit] | 16.4 µM [rising, partial curve]
28 | COc1ccc(NC(=O)N2CCCC(C(=O)NCCc3ccccc3)C2)cc1 (stereo not given) | 8.12% |  | 29.1 µM [rising, single point]
29 | O=C(CSc1nnc(-c2cccs2)o1)NCc1ccco1 | -70.9% | 16.4 µM [falling, single point] | 
30 | O=C1CC(C(=O)NC2CCCCC2)C(c2ccccc2)O1 (stereo not given) |  |  | 0.116 µM [falling, full curve, poor fit]
31 | COc1ccc(CCn2c(-c3ccc(OC)cc3)nc3c(c(=O)c4ccccc4n3C)c2=O)cc1 | 24% |  | 
32 | C#CCOCCOCCOCCNc1nc(N2CCN(C(=O)[C@H]([C@@H](C)O)n3cc(CCCCN)nn3)CC2)nc(N2CCN(C(=O)[C@H](Cc3ccc(O)cc3)n3cc(CCO)nn3)CC2)n1 | 0.231% | 5.17 µM [falling, partial curve] | 6.51 µM [falling, partial curve]
33 | Cc1ccccc1S(=O)Cc1ccc(C(=O)NC2CC2)o1 (stereo not given) | -1.77% |  | 0.58 µM [rising, single point]
34 | CCOc1ccc(CN2CCNC(=O)C2CC(=O)NCc2cc(C)n(C)n2)cc1 (stereo not given) |  |  | 29.1 µM [rising, single point]
35 | COc1ccccc1-n1c(CNC(=O)c2ccc(S(=O)(=O)N3CCOCC3)cc2)n[nH]c1=S | 7.73% | 2.91 µM [rising, single point] | 29.1 µM [falling, single point]
36 | Oc1ccccc1Oc1c(F)c(F)nc(N2CCCC2)c1F |  | 0.13 µM [rising, full curve, poor fit] | 
37 | CCOc1ccc(/C=N/n2cc(-c3ccccc3)[nH]c2=S)cc1 |  | 6.51 µM [falling, single point] | 5.17 µM [falling, single point]
